Assay results published in PubChem BioAssay AID540276 (National Center for Advancing Translational Sciences (NCATS), 2011).
About 5,400 (1.8%) of roughly 300,000 compounds were called active. This list was built around the results that the source calls inconclusive (neither active nor inactive); the mix of calls is not that of the screen. Calls come from the whole dose curve; tested in HEK293 cells. Potencies of inconclusive entries are doubtful fits and often do not repeat.

Assay: qHTS for inhibitors of binding or entry into cells for Marburg Virus
Details: Marburg virus pseudotyped entry inhibition, cell reporter; series mostly up to 37.8 µM
Potency is the fitted concentration of half-maximal effect.

Row | SMILES | Potency
1 | O=C(O)COc1ccc(/C=N/NC(=O)C(O)(c2ccccc2)c2ccccc2)cc1 | inconclusive: 15.8 µM [activator, partial curve, poor fit]
2 | N#Cc1ccccc1NC(=O)CSc1nccn1CCc1ccccc1 | inactive
3 | Cc1ccnc(NC(=O)Cc2ccc([N+](=O)[O-])cc2)c1 | inactive
4 | COc1ccc(CNC(=O)CCc2c(C)c3cc4c(C)c(C)oc4cc3oc2=O)cc1 | inactive
5 | O=C(OC1CCCCC1=O)c1cccc(S(=O)(=O)NCc2ccccc2)c1 (stereo not drawn) | inconclusive: 7.94 µM [inhibitor, partial curve]
6 | Cc1ccc2oc(C(=O)N3CCC(N4CCSCC4)CC3)c(C)c2c1 | inconclusive: 20 µM [activator, partial curve, poor fit]
7 | CCOC(=O)C(C)N1C(=O)S/C(=C/c2cc(C)n(-c3ccccn3)c2C)C1=O (stereo not drawn) | inconclusive: 1.26 µM [activator, partial curve, poor fit]
8 | COC(=O)c1sccc1NC(=O)Cc1ccc(Br)cc1 | inconclusive: 20.6 µM [inhibitor, single point]
9 | CC(=O)NC1Sc2ccccc2N=C1c1ccccc1 (stereo not drawn) | inconclusive: 3.55 µM [activator, full curve, poor fit]
10 | CC(C)Cn1cnc2c(SCc3ccccc3)nc(N)nc21 | inconclusive: 35.5 µM [inhibitor, single point]
11 | CCc1cccc(CC)c1NC(=O)COC(=O)c1cccc(S(=O)(=O)N2CCc3ccccc3C2)c1 | inconclusive: 0.794 µM [activator, partial curve, poor fit]
12 | COc1ccc(S(=O)(=O)N(C)CC(=O)Nc2ccc3c(c2)OCCO3)cc1 | inconclusive: 11.2 µM [activator, partial curve]
13 | CC(=O)N1CCc2cc(S(=O)(=O)NC(CC(C)C)C(=O)NCc3ccccc3Cl)ccc21 (stereo not drawn) | inconclusive: 10 µM [inhibitor, single point]
14 | CCCn1c(-c2ccc[nH]c2=O)nc2ccccc21 | inactive
15 | CCOC(=O)C1=C(C)N(C)C(=S)NC1c1cc(OC)ccc1OC (stereo not drawn) | inactive
16 | CN(C)c1ccc(C=Nc2ccc(N(C)C)cc2)cc1 | inconclusive: 8.91 µM [inhibitor, partial curve, poor fit]
17 | N#Cc1cccc(NC(=O)Cn2c3[n+](c4ccc(C(F)(F)F)cc42)CCCCC3)c1 | inconclusive: 4.47 µM [inhibitor, partial curve, poor fit]
18 | CCc1cc2c(=O)n(Cc3ccco3)c(SCC(=O)NCC3CCCO3)nc2s1 (stereo not drawn) | inconclusive: 35.5 µM [inhibitor, partial curve, poor fit]

Part of the list above, as tab-separated lines.
Row	SMILES	Potency
11	CCc1cccc(CC)c1NC(=O)COC(=O)c1cccc(S(=O)(=O)N2CCc3ccccc3C2)c1	inconclusive: 0.794 µM [activator, partial curve, poor fit]
12	COc1ccc(S(=O)(=O)N(C)CC(=O)Nc2ccc3c(c2)OCCO3)cc1	inconclusive: 11.2 µM [activator, partial curve]
